Source: article PMC12285236, “Xylanolytic metabolism is regulated by coordination of transcription factors XynR and XylR in extremely thermophilic Caldicellulosiruptorales”
For some of these results: A negative result means that nothing was seen under these conditions. For some of these results: Protein sequences can lack the tags named with them. For some of these results: The exact form of at least one protein or probe is not confirmed. For some of these results: The comparison behind a weaker result is the experiment's own reference, which may not be listed here.

How the values were obtained:
[1] = target: XynR (Anaerocellum (f. Caldicellulosiruptor) bescii) (UniProt B9MPD1); test: BLI; conditions: BLI: 100 nM DNA immobilized on streptavidin sensors, recombinant protein, protein details: C-terminal 6xHis, label: 5' biotin on strand 1
[2] = target: T1, XylR (Anaerocellum (f. Caldicellulosiruptor) bescii) (UniProt Q44406); test: fluorescence polarization; conditions: FP called inconclusive, binding seen by BLI; FP: 5 nM probe, 30 nM-3 uM protein, 22 C; recombinant protein; residues 1-399; protein details: C-terminal 6xHis; label: 5' 6-FAM on strand 1
T1 sequence (looked up): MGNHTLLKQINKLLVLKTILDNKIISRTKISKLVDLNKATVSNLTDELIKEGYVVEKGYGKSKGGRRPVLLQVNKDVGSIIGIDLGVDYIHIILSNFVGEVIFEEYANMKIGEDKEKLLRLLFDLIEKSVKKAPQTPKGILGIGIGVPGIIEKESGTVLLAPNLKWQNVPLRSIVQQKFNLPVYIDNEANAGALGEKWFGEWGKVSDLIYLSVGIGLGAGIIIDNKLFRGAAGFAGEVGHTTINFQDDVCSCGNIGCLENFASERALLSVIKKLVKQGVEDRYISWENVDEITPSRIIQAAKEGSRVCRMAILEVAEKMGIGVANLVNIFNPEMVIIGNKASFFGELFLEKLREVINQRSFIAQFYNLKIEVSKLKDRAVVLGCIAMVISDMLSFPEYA

Sequence | binding result ([1]; weaker interaction) | other results
CTTTGTGCTGAGGTTAGAAAGCGGTTTCAAGCAATTTAAAACAA (double strand) [xyl3A BLI probe] | binds more weakly | –
ATATTTTTTTATTTTCATGAAATCGCTTTCCTATCTAAAATATTAA (double strand) [xynMNC BLI probe] | – | binding result ([1]; stronger association, slower dissociation): binds
CAAAAAATATTGACTAGTAAACGCTTACGATATATTATATAAAC (double strand) [XDL BLI probe] | binds more weakly | –
ATTATAGATATTAGTTTGTTTAATAAACAAACTAAGTACACGTACT (double strand) [xylA FP probe] | – | binding result [2]: no binding
